# Values of other authors as cited in US5985871A, “Benzoxazine compounds for enhancing synaptic response” (Cortex Pharmaceuticals, Inc., priority 1997, dated 1999).
# For at least one compound, name, drawing or mass did not settle the structure.
# Tested on: brain AMPA receptors
# Details: literature; cited from earlier work
smiles,measurement,value
"COc1ccc(C(=O)N2CCCC2=O)cc1 [aniracetam, N-anisoyl-2-pyrrolidinone]",concentration at which the drug works,~ 1.0 mM
